Some of the results follow. Residues, ends and D or L forms follow the SMILES beside them. *: point of attachment. Cbz = O=C(OCc1ccccc1)*
Columns and labels:
Test in all cases: log2 fold change, soluble protein after heating vs DMSO (PISA); higher = thermal stabilisation; K562 cells, 10 uM, 30 min; active = over 0.2 and 3.5 SD of the protein, either way, in both replicates (recomputed)
erlotinib = compound: C#Cc1cccc(Nc2ncnc3cc(OCCOC)c(OCCOC)cc23)c1 [erlotinib]
Method in brief: (§1)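 Aliquots of K562 cells (2×10^6 cells/mL) treated with 10 μM compound for 30 min were heated for 3 min over 48°C-58°C. After pooling and extraction in PBS with 0.5% NP-40 at 4°C, soluble protein from a 21,000xg, 90 min spin was quantified by TMTpro 16plex LC-MS/MS with channel sums equalised. Thermal stability is expressed against control samples, from duplicates, as a log2 fold change.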

The chains behind the UniProt entries cited, without tags or fusion partners. Where a name states a change or a piece, a line headed by the entry shows the natural chain unless it says otherwise.
UniProt P50416: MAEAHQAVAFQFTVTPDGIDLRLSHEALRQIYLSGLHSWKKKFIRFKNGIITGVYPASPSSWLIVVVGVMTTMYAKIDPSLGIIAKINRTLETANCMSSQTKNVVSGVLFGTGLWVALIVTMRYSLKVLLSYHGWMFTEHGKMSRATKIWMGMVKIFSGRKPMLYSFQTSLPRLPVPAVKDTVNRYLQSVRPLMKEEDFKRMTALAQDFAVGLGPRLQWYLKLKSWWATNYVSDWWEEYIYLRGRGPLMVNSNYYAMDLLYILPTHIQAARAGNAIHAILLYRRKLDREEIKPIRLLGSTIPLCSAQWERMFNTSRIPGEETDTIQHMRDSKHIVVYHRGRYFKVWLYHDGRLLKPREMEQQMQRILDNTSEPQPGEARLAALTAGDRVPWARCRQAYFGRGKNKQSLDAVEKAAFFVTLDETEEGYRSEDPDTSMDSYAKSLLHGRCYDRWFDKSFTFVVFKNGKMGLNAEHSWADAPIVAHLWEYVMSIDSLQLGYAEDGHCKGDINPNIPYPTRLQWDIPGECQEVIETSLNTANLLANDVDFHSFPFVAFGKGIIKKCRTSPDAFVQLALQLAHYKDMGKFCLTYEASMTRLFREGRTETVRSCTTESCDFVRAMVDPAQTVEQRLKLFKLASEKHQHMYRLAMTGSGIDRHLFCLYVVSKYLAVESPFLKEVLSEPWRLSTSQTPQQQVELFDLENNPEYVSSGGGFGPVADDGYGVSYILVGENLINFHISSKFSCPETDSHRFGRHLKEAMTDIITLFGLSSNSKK
UniProt Q9Y646: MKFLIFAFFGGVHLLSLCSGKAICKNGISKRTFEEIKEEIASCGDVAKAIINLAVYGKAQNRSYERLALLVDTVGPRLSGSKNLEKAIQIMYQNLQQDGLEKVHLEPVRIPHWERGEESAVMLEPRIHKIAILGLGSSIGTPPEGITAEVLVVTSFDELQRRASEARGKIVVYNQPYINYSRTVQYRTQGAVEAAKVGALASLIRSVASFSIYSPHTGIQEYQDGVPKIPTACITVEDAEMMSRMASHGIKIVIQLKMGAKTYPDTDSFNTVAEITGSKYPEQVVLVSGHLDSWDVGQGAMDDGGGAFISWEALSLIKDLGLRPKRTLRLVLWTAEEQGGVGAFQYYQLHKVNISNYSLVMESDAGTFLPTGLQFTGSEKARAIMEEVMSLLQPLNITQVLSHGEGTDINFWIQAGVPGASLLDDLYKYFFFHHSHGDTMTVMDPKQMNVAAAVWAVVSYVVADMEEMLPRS
UniProt O75390: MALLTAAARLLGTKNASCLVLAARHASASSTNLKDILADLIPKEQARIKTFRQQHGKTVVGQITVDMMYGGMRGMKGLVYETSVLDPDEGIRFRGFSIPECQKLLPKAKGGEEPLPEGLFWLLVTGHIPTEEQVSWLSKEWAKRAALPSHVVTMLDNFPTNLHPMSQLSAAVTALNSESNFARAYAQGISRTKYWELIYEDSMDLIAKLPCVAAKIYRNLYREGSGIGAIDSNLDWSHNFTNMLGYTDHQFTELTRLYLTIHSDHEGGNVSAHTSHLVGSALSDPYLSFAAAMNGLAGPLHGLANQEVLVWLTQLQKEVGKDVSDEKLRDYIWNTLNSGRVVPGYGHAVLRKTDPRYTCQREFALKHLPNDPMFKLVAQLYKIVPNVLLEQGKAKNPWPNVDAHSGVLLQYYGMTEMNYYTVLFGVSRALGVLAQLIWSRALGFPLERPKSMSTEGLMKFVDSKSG
UniProt Q53ET0: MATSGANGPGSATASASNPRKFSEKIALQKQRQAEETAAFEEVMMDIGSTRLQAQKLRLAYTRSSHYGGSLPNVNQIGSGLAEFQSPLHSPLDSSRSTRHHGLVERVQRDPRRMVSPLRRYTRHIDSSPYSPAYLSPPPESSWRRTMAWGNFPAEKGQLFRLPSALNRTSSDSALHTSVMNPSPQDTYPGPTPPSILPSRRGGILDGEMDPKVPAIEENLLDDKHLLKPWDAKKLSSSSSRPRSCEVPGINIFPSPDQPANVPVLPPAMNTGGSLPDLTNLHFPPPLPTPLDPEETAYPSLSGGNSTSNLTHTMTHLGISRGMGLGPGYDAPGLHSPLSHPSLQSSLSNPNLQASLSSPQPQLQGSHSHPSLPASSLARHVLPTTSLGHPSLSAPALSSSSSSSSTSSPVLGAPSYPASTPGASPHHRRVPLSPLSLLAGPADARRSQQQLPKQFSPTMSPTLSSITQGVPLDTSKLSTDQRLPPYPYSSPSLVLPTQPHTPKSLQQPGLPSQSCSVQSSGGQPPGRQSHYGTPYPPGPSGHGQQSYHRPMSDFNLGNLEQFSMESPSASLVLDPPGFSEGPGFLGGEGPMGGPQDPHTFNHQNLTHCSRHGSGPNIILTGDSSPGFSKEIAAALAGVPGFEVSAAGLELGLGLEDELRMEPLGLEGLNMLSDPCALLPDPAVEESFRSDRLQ
UniProt P14854, whole entry, looked up: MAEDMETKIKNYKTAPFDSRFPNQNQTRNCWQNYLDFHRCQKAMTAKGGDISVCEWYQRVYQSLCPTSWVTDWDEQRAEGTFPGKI
UniProt P21964: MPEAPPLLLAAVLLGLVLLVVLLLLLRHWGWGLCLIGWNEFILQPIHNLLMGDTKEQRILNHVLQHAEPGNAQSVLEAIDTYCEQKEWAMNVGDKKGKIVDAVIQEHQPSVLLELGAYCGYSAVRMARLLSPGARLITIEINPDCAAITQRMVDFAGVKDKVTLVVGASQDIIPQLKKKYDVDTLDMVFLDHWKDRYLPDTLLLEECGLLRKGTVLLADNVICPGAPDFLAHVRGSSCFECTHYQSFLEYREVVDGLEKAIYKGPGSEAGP
UniProt P24311, whole entry, looked up: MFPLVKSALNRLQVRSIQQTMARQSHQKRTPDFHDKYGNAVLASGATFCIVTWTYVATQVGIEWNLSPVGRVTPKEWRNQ
UniProt P12074, whole entry, looked up: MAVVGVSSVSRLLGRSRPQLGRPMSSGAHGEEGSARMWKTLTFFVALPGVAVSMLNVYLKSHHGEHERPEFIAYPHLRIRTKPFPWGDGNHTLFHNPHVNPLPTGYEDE
UniProt P52943: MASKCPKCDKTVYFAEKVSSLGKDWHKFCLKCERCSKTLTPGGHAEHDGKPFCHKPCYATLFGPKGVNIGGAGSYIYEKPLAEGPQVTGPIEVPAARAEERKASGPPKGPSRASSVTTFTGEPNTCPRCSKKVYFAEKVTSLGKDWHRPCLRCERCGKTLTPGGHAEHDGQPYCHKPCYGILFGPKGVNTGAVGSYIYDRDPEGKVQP
UniProt P67870, whole entry, looked up: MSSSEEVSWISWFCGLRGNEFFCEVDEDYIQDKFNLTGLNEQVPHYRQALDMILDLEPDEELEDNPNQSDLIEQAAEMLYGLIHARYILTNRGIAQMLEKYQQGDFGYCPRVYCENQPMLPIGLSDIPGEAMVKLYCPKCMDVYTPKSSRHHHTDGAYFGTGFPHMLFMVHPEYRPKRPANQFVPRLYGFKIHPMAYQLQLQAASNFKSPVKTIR
UniProt Q7KZN9: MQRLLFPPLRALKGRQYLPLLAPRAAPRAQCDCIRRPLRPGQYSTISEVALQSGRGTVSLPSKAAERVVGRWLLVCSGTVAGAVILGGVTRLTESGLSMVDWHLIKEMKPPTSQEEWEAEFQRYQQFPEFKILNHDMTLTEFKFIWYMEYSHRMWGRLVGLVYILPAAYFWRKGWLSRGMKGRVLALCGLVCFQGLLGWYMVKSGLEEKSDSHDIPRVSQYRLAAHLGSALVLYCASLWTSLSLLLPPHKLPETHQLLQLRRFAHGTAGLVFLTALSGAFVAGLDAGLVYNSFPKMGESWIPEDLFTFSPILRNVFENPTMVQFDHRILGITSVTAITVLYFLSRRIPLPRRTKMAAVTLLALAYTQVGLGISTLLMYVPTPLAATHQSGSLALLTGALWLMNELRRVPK
UniProt P41240: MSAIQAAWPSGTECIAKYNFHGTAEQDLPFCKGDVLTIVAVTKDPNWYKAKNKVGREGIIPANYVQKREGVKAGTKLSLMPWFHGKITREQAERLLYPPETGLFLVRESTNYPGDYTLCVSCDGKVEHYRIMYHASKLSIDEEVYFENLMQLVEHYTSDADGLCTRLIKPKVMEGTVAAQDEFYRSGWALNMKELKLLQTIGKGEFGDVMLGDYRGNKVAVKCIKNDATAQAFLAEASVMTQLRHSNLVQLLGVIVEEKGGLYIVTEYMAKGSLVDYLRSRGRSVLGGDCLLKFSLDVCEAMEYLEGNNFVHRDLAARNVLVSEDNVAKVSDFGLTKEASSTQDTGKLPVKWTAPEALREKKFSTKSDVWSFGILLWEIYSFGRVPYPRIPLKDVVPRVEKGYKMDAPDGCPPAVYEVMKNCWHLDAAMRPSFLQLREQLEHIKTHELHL
UniProt Q9UBL6: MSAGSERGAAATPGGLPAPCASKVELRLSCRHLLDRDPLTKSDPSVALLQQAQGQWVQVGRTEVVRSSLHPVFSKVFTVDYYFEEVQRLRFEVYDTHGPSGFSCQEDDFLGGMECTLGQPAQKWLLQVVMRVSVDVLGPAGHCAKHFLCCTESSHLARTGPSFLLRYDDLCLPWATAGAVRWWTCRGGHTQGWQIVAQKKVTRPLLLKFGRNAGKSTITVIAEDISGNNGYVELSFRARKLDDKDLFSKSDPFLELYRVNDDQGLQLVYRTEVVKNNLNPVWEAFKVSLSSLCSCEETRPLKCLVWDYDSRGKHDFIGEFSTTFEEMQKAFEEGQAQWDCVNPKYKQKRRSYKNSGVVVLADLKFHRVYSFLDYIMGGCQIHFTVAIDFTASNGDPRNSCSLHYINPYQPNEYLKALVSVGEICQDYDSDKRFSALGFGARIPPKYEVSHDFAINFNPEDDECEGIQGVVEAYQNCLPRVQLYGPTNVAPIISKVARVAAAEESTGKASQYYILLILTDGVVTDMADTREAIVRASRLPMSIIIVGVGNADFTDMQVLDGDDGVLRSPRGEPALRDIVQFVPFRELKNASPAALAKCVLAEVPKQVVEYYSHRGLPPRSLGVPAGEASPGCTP
UniProt Q8N668, whole entry, looked up: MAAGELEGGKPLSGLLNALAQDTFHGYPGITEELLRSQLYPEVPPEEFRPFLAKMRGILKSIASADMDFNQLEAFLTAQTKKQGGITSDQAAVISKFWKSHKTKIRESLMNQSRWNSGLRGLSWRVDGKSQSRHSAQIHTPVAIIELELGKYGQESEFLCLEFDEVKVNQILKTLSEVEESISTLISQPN
UniProt O14810: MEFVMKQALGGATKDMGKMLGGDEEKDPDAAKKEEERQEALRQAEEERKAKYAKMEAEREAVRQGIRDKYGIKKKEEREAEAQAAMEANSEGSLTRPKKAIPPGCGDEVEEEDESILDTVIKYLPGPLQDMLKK
UniProt Q14194, whole entry, looked up: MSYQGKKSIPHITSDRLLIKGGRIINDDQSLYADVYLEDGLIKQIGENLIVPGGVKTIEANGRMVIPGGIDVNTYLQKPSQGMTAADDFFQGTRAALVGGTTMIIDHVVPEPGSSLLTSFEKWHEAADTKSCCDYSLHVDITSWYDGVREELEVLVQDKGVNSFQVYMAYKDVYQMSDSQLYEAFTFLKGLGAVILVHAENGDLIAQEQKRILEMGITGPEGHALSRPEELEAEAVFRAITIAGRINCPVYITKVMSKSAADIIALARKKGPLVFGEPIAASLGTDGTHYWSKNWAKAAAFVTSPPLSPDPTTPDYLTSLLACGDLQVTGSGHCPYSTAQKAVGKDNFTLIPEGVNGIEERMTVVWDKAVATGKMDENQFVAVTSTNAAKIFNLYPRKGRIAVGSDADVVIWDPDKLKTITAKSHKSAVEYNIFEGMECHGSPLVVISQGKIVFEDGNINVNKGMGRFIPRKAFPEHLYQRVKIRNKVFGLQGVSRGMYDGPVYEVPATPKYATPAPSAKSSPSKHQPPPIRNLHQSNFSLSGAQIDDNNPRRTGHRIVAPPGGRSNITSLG
UniProt P49747: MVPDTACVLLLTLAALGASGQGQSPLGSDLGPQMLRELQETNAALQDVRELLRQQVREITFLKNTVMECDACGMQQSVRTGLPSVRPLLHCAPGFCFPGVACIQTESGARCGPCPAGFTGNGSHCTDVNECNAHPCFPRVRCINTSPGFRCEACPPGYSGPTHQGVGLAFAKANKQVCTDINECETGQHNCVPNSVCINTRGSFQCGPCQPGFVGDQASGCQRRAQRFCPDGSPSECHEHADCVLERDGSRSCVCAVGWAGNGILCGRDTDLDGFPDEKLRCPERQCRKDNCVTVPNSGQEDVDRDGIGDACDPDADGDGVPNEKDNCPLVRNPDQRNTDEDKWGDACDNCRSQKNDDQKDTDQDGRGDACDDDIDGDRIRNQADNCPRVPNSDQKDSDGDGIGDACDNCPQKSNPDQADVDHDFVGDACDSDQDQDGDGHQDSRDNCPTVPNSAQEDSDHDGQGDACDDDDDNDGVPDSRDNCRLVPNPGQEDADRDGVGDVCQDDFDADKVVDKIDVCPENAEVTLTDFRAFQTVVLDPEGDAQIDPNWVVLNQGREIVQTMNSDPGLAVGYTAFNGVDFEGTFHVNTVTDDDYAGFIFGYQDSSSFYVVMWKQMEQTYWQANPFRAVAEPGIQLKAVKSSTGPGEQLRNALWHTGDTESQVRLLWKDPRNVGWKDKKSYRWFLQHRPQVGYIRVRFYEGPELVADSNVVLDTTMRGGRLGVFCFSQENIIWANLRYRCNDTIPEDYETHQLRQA

[1] = compound: C/C(=N\NC(=O)C1=CC(=CC=C1)S(=O)(=O)N2CCOCC2)/C3=C(C=CC(=C3)Cl)O
Method in brief: as §1

[2] = compound: C1=CC(=C(C=C1Cl)C2=NC3=NC=CN=C3C(=N2)NC4=CC=NC=C4)F
Method in brief: as §1

[3] = compound: C1=CC(=CC=C1C2=NC3=C(N2)C=C(C=C3)C(=O)N)OC4=CC=C(C=C4)Cl
Method in brief: as §1

[4] = compound: C1=CC2=C(C=CC(=C2)/C=C\3/C(=O)NC(=NCC4=CC=CS4)S3)N=C1
Method in brief: as §1

[5] = compound: C1=CC2=NC=CN=C2C=C1/C=C/3\C(=O)NC(=O)S3
Method in brief: as §1

[6] = compound: C1=CC=C(C=C1)C2=NC(=C(N2)C3=CC=NC=C3)C4=CC(=C(C=C4)Cl)O
Method in brief: as §1

[7] = compound: C1=CC=C2C(=C1)C3=NNC4=CC=CC(=C43)C2=O
Method in brief: as §1

[8] = compound: C1CCN(C1)C(=O)NC2=CC=CC(=C2)NC3=NC=C(C(=N3)NCCC4=CN=CN4)Br
Method in brief: as §1

[9] = compound: C1CN(CCC1(CC2=CC=C(C=C2)Cl)N)C3=NC=NC4=C3C=CN4
Method in brief: as §1

IRAK-1-4 Inhibitor I = compound: C1COCCN1CCN2C3=CC=CC=C3N=C2NC(=O)C4=CC(=CC=C4)[N+](=O)[O-] [IRAK-1-4 Inhibitor I]
Method in brief: as §1

ibrutinib = compound: C=CC(=O)N1CCC[C@@H](n2nc(-c3ccc(Oc4ccccc4)cc3)c3c(N)ncnc32)C1 [ibrutinib]
Method in brief: as §1

[10] = compound: CC(=O)c1cnc2ccc(-c3cc(Cl)c(O)c(Cl)c3)nc2c1N[C@H]1CC[C@H](CN(C)C)CC1
Method in brief: as §1

ralimetinib = compound: CC(C)(C)Cn1c(N)nc2ccc(-c3[nH]c(C(C)(C)C)nc3-c3ccc(F)cc3)nc21 [ralimetinib]
Method in brief: as §1

[11] = compound: CC(C)(O)CC(=O)NCCn1ccc2ncnc(Nc3ccc(Oc4cccc(C(F)(F)F)c4)c(Cl)c3)c21
Method in brief: as §1

[12] = compound: CC(C)C1=C2N=C(C=C(N2N=C1)NCC3=CC=CC=C3)NCCCCCCN
Method in brief: as §1

[13] = compound: CC(C)C[C@@H](C=O)NC(=O)[C@H](CC(C)C)NC(=O)[C@H](CC(C)C)NC(=O)OCc1ccccc1
Method in brief: as §1

pinometostat = compound: CC(C)N(C[C@H]1O[C@@H](n2cnc3c(N)ncnc32)[C@H](O)[C@@H]1O)[C@H]1C[C@@H](CCc2nc3cc(C(C)(C)C)ccc3[nH]2)C1 [pinometostat]
Method in brief: as §1

[14] = compound: CC1=C(C2=C(C=C1)C(=O)C3=CC=CC=C3N2CCCN)C
Method in brief: as §1

[15] = compound: CC1=C(C(CC(=O)N1)C2=CC=C(C=C2)C(F)(F)F)C(=O)NC3=C(C=C4C(=C3)C=NN4)F
Method in brief: as §1

| Target | log2 fold change (erlotinib) | log2 fold change [1] | log2 fold change [2] | log2 fold change [3] | log2 fold change [4] | log2 fold change [5] | log2 fold change [6] | log2 fold change [7] | log2 fold change [8] | log2 fold change [9] | log2 fold change (IRAK-1-4 Inhibitor I) | log2 fold change (ibrutinib) | log2 fold change [10] | log2 fold change (ralimetinib) | log2 fold change [11] | log2 fold change [12] | log2 fold change [13] | log2 fold change (pinometostat) | log2 fold change [14] | log2 fold change [15] |
| --- | --- | --- | --- | --- | --- | --- | --- | --- | --- | --- | --- | --- | --- | --- | --- | --- | --- | --- | --- | --- |
| CPT1A (UniProt P50416) | inactive: -0.008 | inactive: 0.042 | inactive: -0.111 | inactive: 0.008 | inactive: -0.028 | inactive: -0.096 | inactive: 0 | inactive: 0.081 | inactive: -0.055 | inactive: 0.076 | inactive: -0.163 | inactive: -0.024 | inactive: -0.103 | inactive: 0.05 | inactive: 0.049 | inactive: 0.195 | inactive: -0.03 | inactive: 0.06 | inactive: -0.047 |  |
| CPQ (UniProt Q9Y646) | inactive: 0.013 | inactive: 0.002 | inactive: 0.051 | inactive: 0 | inactive: 0.05 | inactive: 0.004 | inactive: 0.07 | inactive: 0 | inactive: -0.027 | inactive: 0.125 | inactive: 0.095 | inactive: 0.01 | inactive: -0.034 | inactive: -0.011 | inactive: 0.003 | inactive: 0.049 | inactive: -0.032 | inactive: 0.007 | inactive: 0.006 |  |
| CS (UniProt O75390) | inactive: 0.028 | inactive: 0.035 | inactive: 0.033 | inactive: 0.002 | inactive: 0.051 | inactive: -0.009 | inactive: 0.072 | inactive: -0.064 | inactive: -0.015 | inactive: 0.035 | inactive: 0.02 | inactive: -0.004 | inactive: 0.002 | inactive: -0.04 | inactive: -0.178 | inactive: -0.148 | inactive: -0.069 | inactive: -0.05 | inactive: 0.008 |  |
| CRTC2 (UniProt Q53ET0) | inactive: 0.194 | inactive: 0.151 | inactive: 0.039 | inactive: 0.035 | inactive: 0.093 | inactive: 0.073 | inactive: -0.129 | inactive: -0.14 | inactive: -0.233 | inactive: 0.08 | inactive: -0.024 | inactive: -0.048 | inactive: -0.151 | inactive: 0 | inactive: -0.053 | inactive: -0.058 | inactive: -0.032 | inactive: 0.01 | inactive: 0.101 |  |
| COX6B1 (UniProt P14854) | inactive: 0.027 | inactive: 0.011 | inactive: 0.247 | inactive: -0.045 | inactive: 0.118 | inactive: 0.048 | inactive: 0 | inactive: -0.037 | inactive: -0.003 | inactive: -0.019 | inactive: -0.046 | inactive: -0.038 | inactive: -0.013 | inactive: -0.144 | inactive: -0.103 | inactive: 0.038 | inactive: -0.01 | inactive: 0.017 | inactive: 0.103 |  |
| COMT (UniProt P21964) | inactive: -0.026 | inactive: 0.076 | inactive: -0.015 | inactive: -0.08 | inactive: 0.023 | inactive: 0.012 | inactive: 0.026 | inactive: 0.029 | inactive: 0.031 | inactive: -0.059 | inactive: 0.01 | inactive: -0.032 | inactive: -0.065 | inactive: -0.043 | inactive: -0.007 | inactive: 0.006 | inactive: -0.039 | inactive: -0.024 | inactive: 0.053 |  |
| COX7B (UniProt P24311) | inactive: -0.022 | inactive: 0.058 | inactive: 0.109 | inactive: 0.006 | inactive: -0.081 | inactive: 0.057 |  | inactive: -0.009 | inactive: 0.085 | inactive: 0.016 | inactive: 0.045 | inactive: 0.074 | inactive: 0.034 |  | inactive: -0.011 | inactive: 0.112 |  | inactive: -0.139 | inactive: 0.266 |  |
| COX6A1 (UniProt P12074) | inactive: -0.088 | inactive: -0.018 |  | inactive: 0.144 | inactive: -0.089 | inactive: -0.034 | inactive: -0.054 | inactive: 0.156 | inactive: 0.023 | inactive: -0.022 | inactive: 0.169 | inactive: 0.093 | inactive: -0.033 | inactive: -0.075 |  | inactive: 0.072 | inactive: 0.021 | inactive: 0.131 | inactive: 0.027 | inactive: 0.119 |
| CRIP2 isoform 2 (UniProt P52943) | inactive: 0.003 | inactive: -0.032 | inactive: 0 | inactive: 0.112 | inactive: -0.07 | inactive: -0.045 |  | inactive: -0.071 | inactive: -0.013 | inactive: 0.122 | inactive: 0.023 | inactive: -0.015 | inactive: 0.06 |  | inactive: 0.027 | inactive: -0.103 |  | inactive: 0.016 | inactive: -0.283 | inactive: -0.026 |
| CSNK2B (UniProt P67870) | inactive: -0.021 | inactive: -0.024 | inactive: -0.017 | inactive: -0.007 | inactive: 0.123 | active: 0.324 | inactive: 0.031 | inactive: 0.084 | inactive: -0.031 | inactive: -0.023 | inactive: -0.003 | inactive: -0.014 | active: 0.266 | inactive: -0.006 | inactive: -0.021 | inactive: -0.087 | inactive: -0.003 | inactive: 0.044 | inactive: 0.096 |  |
| COX15 (UniProt Q7KZN9) | inactive: -0.01 | inactive: -0.008 | inactive: 0.067 | inactive: -0.008 | inactive: 0.03 | inactive: 0.145 | inactive: -0.009 | inactive: -0.019 | inactive: 0.01 | inactive: 0.057 | inactive: 0.022 | inactive: -0.04 | inactive: 0.027 | inactive: -0.03 | inactive: -0.036 | inactive: -0.04 | inactive: 0.001 | inactive: -0.022 | inactive: 0.008 |  |
| CSK (UniProt P41240) | inactive: 0.023 | inactive: 0.031 | inactive: -0.038 | inactive: 0.005 | inactive: 0.056 | inactive: -0.022 | inactive: 0.024 | inactive: -0.02 | inactive: -0.034 | inactive: -0.05 | inactive: -0.016 | inactive: 0.074 | inactive: 0.111 | inactive: 0.011 | inactive: -0.034 | inactive: -0.131 | inactive: 0.031 | inactive: 0 | inactive: -0.011 |  |
| CPNE7 (UniProt Q9UBL6) | inactive: 0.014 | inactive: 0.055 |  | inactive: 0.022 | inactive: 0.103 | inactive: 0.006 | inactive: -0.023 | inactive: 0.054 | inactive: 0.021 | inactive: 0.018 | inactive: -0.012 | inactive: -0.022 | inactive: -0.037 | inactive: -0.019 |  | inactive: -0.017 | inactive: -0.002 | inactive: -0.096 | inactive: -0.031 | inactive: -0.061 |
| COMMD1 (UniProt Q8N668) | inactive: -0.136 |  | inactive: -0.241 | inactive: 0.15 |  | inactive: -0.088 | inactive: 0.066 |  | inactive: 0.037 | inactive: -0.083 | inactive: -0.033 | inactive: -0.083 |  | inactive: 0.036 | inactive: 0.06 | inactive: -0.177 | inactive: 0.19 | inactive: 0.046 | inactive: 0.006 |  |
| CPLX1 (UniProt O14810) | inactive: -0.256 | inactive: 0.095 | inactive: 0.021 | inactive: -0.148 | inactive: 0.131 | inactive: 0.117 | inactive: 0.014 | inactive: -0.235 |  |  | inactive: 0.041 | inactive: 0.159 | inactive: 0.132 | inactive: 0.041 | inactive: 0.091 | inactive: 0.002 | inactive: 0.017 | inactive: -0.069 |  |  |
| CRYM-AS1 (UniProt A6NIL9) | inactive: 0.13 | inactive: -0.214 | inactive: 0.027 | inactive: 0.23 | inactive: 0.089 | inactive: -0.725 | inactive: 0.024 | inactive: 0.073 | inactive: -0.27 | inactive: 0.108 | inactive: 0.13 | inactive: 0.172 | inactive: -0.017 | inactive: -0.063 | inactive: -0.108 | inactive: -0.088 | inactive: 0.168 | inactive: 0.054 | inactive: -0.099 |  |
| CRMP1 isoform 2 (UniProt Q14194) | inactive: -0.1 | inactive: -0.273 |  | inactive: 0.009 | inactive: 0.101 | inactive: -0.011 |  | inactive: -0.037 | inactive: 0.088 | inactive: -0.014 |  | inactive: 0.038 | inactive: -0.224 |  |  | inactive: 0.124 |  |  | inactive: 0.181 |  |
| COMP (UniProt P49747) | inactive: -0.09 | inactive: -0.222 |  | inactive: 0.198 | inactive: 0.137 | inactive: 0.099 | inactive: -0.102 | inactive: -0.167 | inactive: 0.212 | inactive: 0.199 | inactive: 0.055 | inactive: 0.278 | inactive: 0.164 | inactive: -0.024 |  | inactive: -0.056 | inactive: 0.114 | inactive: -0.021 | inactive: -0.437 |  |

Shown tab-delimited: part of the list above
Target	log2 fold change (erlotinib)	log2 fold change [1]	log2 fold change [2]	log2 fold change [3]	log2 fold change [4]	log2 fold change [5]	log2 fold change [6]	log2 fold change [7]	log2 fold change [8]	log2 fold change [9]	log2 fold change (IRAK-1-4 Inhibitor I)	log2 fold change (ibrutinib)	log2 fold change [10]	log2 fold change (ralimetinib)	log2 fold change [11]	log2 fold change [12]	log2 fold change [13]	log2 fold change (pinometostat)	log2 fold change [14]	log2 fold change [15]
CRTC2 (UniProt Q53ET0)	inactive: 0.194	inactive: 0.151	inactive: 0.039	inactive: 0.035	inactive: 0.093	inactive: 0.073	inactive: -0.129	inactive: -0.14	inactive: -0.233	inactive: 0.08	inactive: -0.024	inactive: -0.048	inactive: -0.151	inactive: 0	inactive: -0.053	inactive: -0.058	inactive: -0.032	inactive: 0.01	inactive: 0.101	
COX6B1 (UniProt P14854)	inactive: 0.027	inactive: 0.011	inactive: 0.247	inactive: -0.045	inactive: 0.118	inactive: 0.048	inactive: 0	inactive: -0.037	inactive: -0.003	inactive: -0.019	inactive: -0.046	inactive: -0.038	inactive: -0.013	inactive: -0.144	inactive: -0.103	inactive: 0.038	inactive: -0.01	inactive: 0.017	inactive: 0.103	

From the supplement of paper PMC10849652
